Data as given in paper PMC7904863.
These are yes or no findings as the source states them, for the method shown. In cells and extracts the contact can be indirect. Some binding calls cover weakened binding; strength is not graded here. One block for each molecule: values may come before it.

Protein sequences, listed by entry. Tags and fused reporters are not part of them.
UniProt Q16637: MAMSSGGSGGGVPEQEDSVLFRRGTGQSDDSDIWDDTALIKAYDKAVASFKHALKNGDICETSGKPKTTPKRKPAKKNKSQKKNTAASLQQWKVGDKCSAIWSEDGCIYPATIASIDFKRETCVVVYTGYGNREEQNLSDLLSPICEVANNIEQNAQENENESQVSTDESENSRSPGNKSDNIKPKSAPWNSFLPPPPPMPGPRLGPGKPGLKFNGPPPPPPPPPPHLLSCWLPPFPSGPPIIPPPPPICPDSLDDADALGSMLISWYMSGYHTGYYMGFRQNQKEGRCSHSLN
UniProt O14893: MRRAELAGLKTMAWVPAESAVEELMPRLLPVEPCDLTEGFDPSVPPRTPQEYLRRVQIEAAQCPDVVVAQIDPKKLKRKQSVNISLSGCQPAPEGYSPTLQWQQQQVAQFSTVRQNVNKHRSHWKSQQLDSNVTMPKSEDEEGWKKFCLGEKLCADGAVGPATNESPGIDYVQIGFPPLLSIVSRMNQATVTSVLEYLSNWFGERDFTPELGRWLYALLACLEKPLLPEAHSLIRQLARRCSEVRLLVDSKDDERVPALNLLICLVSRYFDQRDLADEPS

How the values were obtained:
[1] = target: T1, La-related protein 7 (LARP7), human (human (endogenous in HEK293TN, HeLa)) (UniProt Q4G0J3); assay: co-IP; endogenous bait precipitated from HeLa cell lysate (lysis buffer B); immunoblot
T1 sequence: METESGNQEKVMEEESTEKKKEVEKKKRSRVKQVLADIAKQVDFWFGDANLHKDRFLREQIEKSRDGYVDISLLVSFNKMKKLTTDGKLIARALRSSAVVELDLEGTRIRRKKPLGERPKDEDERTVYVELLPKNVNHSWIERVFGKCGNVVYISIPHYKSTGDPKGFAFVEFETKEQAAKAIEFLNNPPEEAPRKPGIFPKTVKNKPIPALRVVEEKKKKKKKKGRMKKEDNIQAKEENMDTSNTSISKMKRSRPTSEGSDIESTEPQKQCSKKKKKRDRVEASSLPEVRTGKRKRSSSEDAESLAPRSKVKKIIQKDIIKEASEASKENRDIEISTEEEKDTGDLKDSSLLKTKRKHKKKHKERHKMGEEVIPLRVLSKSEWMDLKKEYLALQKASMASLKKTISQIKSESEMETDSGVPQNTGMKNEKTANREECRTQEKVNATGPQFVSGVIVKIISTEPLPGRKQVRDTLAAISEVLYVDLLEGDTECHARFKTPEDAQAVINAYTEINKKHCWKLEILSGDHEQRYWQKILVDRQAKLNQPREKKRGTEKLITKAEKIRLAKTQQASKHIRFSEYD

[2] = target: T2, methyl phosphate capping enzyme (MePCE), human (human (endogenous in HEK293TN, HeLa)) (UniProt Q7L2J0); assay: as above
T2 sequence: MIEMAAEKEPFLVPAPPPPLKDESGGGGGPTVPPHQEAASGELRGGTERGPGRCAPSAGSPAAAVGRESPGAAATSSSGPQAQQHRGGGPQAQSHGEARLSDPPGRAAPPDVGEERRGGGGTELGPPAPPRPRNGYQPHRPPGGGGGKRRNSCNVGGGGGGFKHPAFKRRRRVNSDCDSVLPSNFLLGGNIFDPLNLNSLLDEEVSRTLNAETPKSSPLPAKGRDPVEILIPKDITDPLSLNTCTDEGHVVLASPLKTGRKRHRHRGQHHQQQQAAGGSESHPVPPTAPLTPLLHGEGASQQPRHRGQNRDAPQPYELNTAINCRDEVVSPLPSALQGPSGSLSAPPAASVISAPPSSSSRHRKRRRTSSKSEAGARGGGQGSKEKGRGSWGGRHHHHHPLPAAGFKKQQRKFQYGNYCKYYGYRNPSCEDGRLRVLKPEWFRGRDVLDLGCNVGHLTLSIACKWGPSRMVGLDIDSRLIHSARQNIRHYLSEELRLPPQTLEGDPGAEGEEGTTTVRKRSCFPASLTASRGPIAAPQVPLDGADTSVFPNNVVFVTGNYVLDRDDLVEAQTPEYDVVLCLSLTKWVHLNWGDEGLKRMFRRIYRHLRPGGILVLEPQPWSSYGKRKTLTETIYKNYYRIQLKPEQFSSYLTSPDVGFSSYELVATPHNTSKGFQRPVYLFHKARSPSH

[3] = target: T1, La-related protein 7 (LARP7), human (human (endogenous in HEK293TN, HeLa)); assay: co-IP; endogenous bait precipitated from HEK293TN cell lysate (lysis buffer B); immunoblot; in Fig. 2f cells treated with DMSO or ActD for 1 or 6 h
[4] = target: Survival Motor Neuron protein (SMN), human (human (endogenous in HEK293TN, HeLa)) (UniProt Q16637); assay: as above
[5] = target: T2, methyl phosphate capping enzyme (MePCE), human (human (endogenous in HEK293TN, HeLa)); assay: as above
[6] = target: T1, La-related protein 7 (LARP7), human (human (endogenous in HEK293TN, HeLa)); assay: co-IP; endogenous bait precipitated with anti-LARP7 or anti-MePCE; immunoblot; cell line not named in the text (Supplementary Fig. 2c, d, g–l)
[7] = target: T2, methyl phosphate capping enzyme (MePCE), human (human (endogenous in HEK293TN, HeLa)); assay: as above

binding [1]: binds | binding [2]: binds | binding [3]: binds | binding [5]: binds
Molecule: GEMIN2, human (from UniProt O14893 1-280)
binding [4]: binds

binding [6]: binds | binding [7]: binds
B1: heterogeneous nuclear ribonucleoprotein Q (hnRNP Q) (protein, UniProt O60506 1-623)
chain: MATEHVNGNGTEEPMDTTSAVIHSENFQTLLDAGLPQKVAEKLDEIYVAGLVAHSDLDERAIEALKEFNEDGALAVLQQFKDSDLSHVQNKSAFLCGVMKTYRQREKQGTKVADSSKGPDEAKIKALLERTGYTLDVTTGQRKYGGPPPDSVYSGQQPSVGTEIFVGKIPRDLFEDELVPLFEKAGPIWDLRLMMDPLTGLNRGYAFVTFCTKEAAQEAVKLYNNHEIRSGKHIGVCISVANNRLFVGSIPKSKTKEQILEEFSKVTEGLTDVILYHQPDDKKKNRGFCFLEYEDHKTAAQARRRLMSGKVKVWGNVGTVEWADPIEDPDPEVMAKVKVLFVRNLANTVTEEILEKAFSQFGKLERVKKLKDYAFIHFDERDGAVKAMEEMNGKDLEGENIEIVFAKPPDQKRKERKAQRQAAKNQMYDDYYYYGPPHMPPPTRGRGRGGRGGYGYPPDYYGYEDYYDYYGYDYHNYRGGYEDPYYGYEDFQVGARGRGGRGARGAAPSRGRGAAPPRGRAGYSQRGGPGSARGVRGARGGAQQQRGRGVRGARGGRGGNVGGKRKADGYNQPDSKRRQTNNQNWGSQPIAQQPLQGGDHSGNYGYKSENQEFYQDTFGQQWK
